Assay: Toxicity test to Vero E6 cells (CCK8)
Conditions: African green monkey

CCC(CC)COC(=O)[C@H](C)N[P@](=O)(OC[C@H]1O[C@@](C#N)(c2ccc3c(N)ncnn23)[C@H](O)[C@@H]1O)Oc1ccccc1 [Remdesivir]
CC50 at 3 days: > 200 µM

From patent publication US20230126992A1, “Antibacterial Antiviral Pharmaceutical Composition and Application Thereof” (priority 2020, published 2023)
